From patent publication US12178878B2, “Amyloid peptide scaffolds coordinate with Alzheimer's disease drugs” (The University of Massachusetts, priority 2018, dated 2024)
Read-outs that look alike come from different tables or passages of the source. For at least one compound, name, drawing or mass did not settle the structure.

Columns and labels:
Assay type in all cases: binding
[1] = test system: […] (SEQ ID NO: 4) amyloid peptide; conditions: YFTGAIIGNFY 1 mg/mL, 150 μM inhibitor loaded, by MS
Method: Amyloid Peptide/Inhibitor Coordination Studies in Dilute Solutions. […]. As a negative control, 1 mL of 0.1 M PBS buffer was added. The mixtures were vortexed and sonicated to homogenously disperse any solid aggregates and stirred overnight to allow for coordination. The mixtures were transferred to 2 mL Eppendorf tubes and centrifuged for 15 mins at 4,400 rpm (14° C.) to pelletize the amyloid bound-inhibitors, and the supernatant was decanted. Subsequently, 1 mL of DI water was added to wash the pellet (followed by vortexing until obtaining a homogenous dispersion) in order to remove any unbound inhibitor. The samples were then centrifuged again at the same conditions so as to pelletize the amyloid materials, and the supernatant was decanted. Another 1 mL of DI water was then added into the pellet, the mixture was vortexed, and the physically bound inhibitor into the dilute amyloid peptide dispersions was quantified by UV-Vis between 200-600 nm and MS. This step is denoted as wash 1 in our study. Two additional pellet purification cycles were realized with replacement of the decanted volume each time with 1 mL of fresh DI water (denoted as wash 2 and wash 3 respectively). The inhibitor-containing peptides amyloids were normalized at 400 nm over the respective no inhibitor-containing amyloid peptides at the specific washing step, and the measured inhibitor peak values (at 315 nm and 323 nm) were subtracted from that of the amyloid peptide carriers at the same wavelength and concentration. The amount of inhibitors coordinated with the amyloid peptide carriers was quantified based on a calibration curve by both UV-Vis and MS.
. The peak at 315 nm was selected for inhibitor quantification due the absence of peaks at that range for both peptides. […]. However, the peak at 315 nm was selected for inhibitor quantification, and the following equation was used for both peptides: A315=A315 ([…]/Donepezil)−A315 ([…])
[…]. The peak at 323 nm was used for inhibitor quantification due the absence of peaks at that range for both peptides. […].

[2] = test system: […] (SEQ ID NO: 3) amyloid peptide; experiment: Coordination at higher peptide concentration (amyloid gel, 5 mg/mL), inhibitor capturing; conditions: FYTGAIIGNYF gel 5 mg/mL, 1000 μM inhibitor solution added, by MS
Method: Amyloid Fibrils Preparation and Characterization. For the formation of fibrils, the amyloid peptides were dispersed in DI water at a 10 mg/ml, vortexed, heated at 60° C. for 30 sec, and sonicated for 15 mins (this cycle was repeated 10 times overall), and finally left overnight at room temperature to form a hydrogel. […] That was confirmed with Field Emission Scanning Electron Microscopy (FESEM) and Congo Red staining (CR).
Coordination Studies at Higher Peptide Concentrations and Inhibitor Capturing. […] (SEQ ID NO: 4) or […] (SEQ ID NO: 3) amyloid peptide gels (10 mg/mL, 1 mL volume) and was left to physically complex under stirring overnight (the final peptide concentration was diluted to 5 mg/mL). A control using 1 mL of 0.1 M PBS (no inhibitor) was also prepared. The complexed amyloid/inhibitor materials were then transferred to 5 mL conical Eppendorf tubes, and centrifuged for 15 mins at 4,400 rpm (14° C.). The supernatant was decanted, and 2 mL of DI water were subsequently added to wash the pellet (followed by vortexing until obtaining a homogenous dispersion) in order to remove any unbound inhibitor. The samples were then centrifuged again at the same conditions so as to pelletize the amyloid materials, and the supernatant was decanted. Another 2 mL of DI water were then added into the pellet, the mixture was vortexed, and the physically bound inhibitor into the amyloid peptides was quantified by UV-Vis between 200-600 nm and MS. This step is denoted as wash 1 in our study. Two additional pellet purification cycles were realized with replacement of the decanted volume each time with 2 mL of fresh DI water (denoted as wash 2 and wash 3 respectively). The inhibitor-containing amyloid peptides were normalized at 400 nm over the respective no inhibitor-containing ones at the specific washing step.

[3] = test system: […] (SEQ ID NO: 3) amyloid peptide; experiment: Amyloid peptide/inhibitor coordination in dilute solution (1 mg/mL), drug captured after pellet washings; conditions: FYTGAIIGNYF 1 mg/mL, 150 μM inhibitor loaded, by MS
Method: Amyloid Peptide/Inhibitor Coordination Studies in Dilute Solutions. […] Subsequently, 1 mL of DI water was added to wash the pellet (followed by vortexing until obtaining a homogenous dispersion) in order to remove any unbound inhibitor. The samples were then centrifuged again at the same conditions so as to pelletize the amyloid materials, and the supernatant was decanted. Another 1 mL of DI water was then added into the pellet, the mixture was vortexed, and the physically bound inhibitor into the dilute amyloid peptide dispersions was quantified by UV-Vis between 200-600 nm and MS. This step is denoted as wash 1 in our study. Two additional pellet purification cycles were realized with replacement of the decanted volume each time with 1 mL of fresh DI water (denoted as wash 2 and wash 3 respectively). The inhibitor-containing peptides amyloids were normalized at 400 nm over the respective no inhibitor-containing amyloid peptides at the specific washing step, and the measured inhibitor peak values (at 315 nm and 323 nm) were subtracted from that of the amyloid peptide carriers at the same wavelength and concentration. The amount of inhibitors coordinated with the amyloid peptide carriers was quantified based on a calibration curve by both UV-Vis and MS.
The peak at 315 nm was selected for inhibitor quantification due the absence of peaks at that range for both peptides. […] However, the peak at 315 nm was selected for inhibitor quantification, and the following equation was used for both peptides: A315=A315 ([…]/Donepezil)−A315 ([…])
The peak at 323 nm was used for inhibitor quantification due the absence of peaks at that range for both peptides.

[4] = test system: […] (SEQ ID NO: 4) amyloid peptide; conditions: YFTGAIIGNFY gel 5 mg/mL, 1000 μM inhibitor solution added, by MS
Method: Amyloid Fibrils Preparation and Characterization. For the formation of fibrils, the amyloid peptides were dispersed in DI water at a 10 mg/ml, vortexed, heated at 60° C. for 30 sec, and sonicated for 15 mins (this cycle was repeated 10 times overall), and finally left overnight at room temperature to form a hydrogel.
A control using 1 mL of 0.1 M PBS (no inhibitor) was also prepared. The complexed amyloid/inhibitor materials were then transferred to 5 mL conical Eppendorf tubes, and centrifuged for 15 mins at 4,400 rpm (14° C.). The supernatant was decanted, and 2 mL of DI water were subsequently added to wash the pellet (followed by vortexing until obtaining a homogenous dispersion) in order to remove any unbound inhibitor. The samples were then centrifuged again at the same conditions so as to pelletize the amyloid materials, and the supernatant was decanted. Another 2 mL of DI water were then added into the pellet, the mixture was vortexed, and the physically bound inhibitor into the amyloid peptides was quantified by UV-Vis between 200-600 nm and MS. This step is denoted as wash 1 in our study. Two additional pellet purification cycles were realized with replacement of the decanted volume each time with 2 mL of fresh DI water (denoted as wash 2 and wash 3 respectively). The inhibitor-containing amyloid peptides were normalized at 400 nm over the respective no inhibitor-containing ones at the specific washing step.

COc1ccc2c3c1O[C@H]1C[C@@H](O)C=C[C@@]31CCN(C)C2 [galantamine]
AD compound captured, Wash 1 ([1]; 1st pellet wash): 4 ± 1 µM
AD compound captured, Wash 2 ([1]; 2nd pellet wash): negligible coordination
AD compound captured, Wash 3 ([1]; 3rd pellet wash): negligible coordination
AD compound captured, Wash 1 ([2]; 1st pellet wash): 22 ± 3 µM
AD compound captured, Wash 2 ([2]; 2nd pellet wash): 4 ± 2 µM
AD compound captured, Wash 3 ([2]; 3rd pellet wash): 3 ± 2 µM
AD compound captured, Wash 1 ([3]; 1st pellet wash): 3 ± 2 µM
AD compound captured, Wash 2 ([3]; 2nd pellet wash): negligible coordination
AD compound captured, Wash 3 ([3]; 3rd pellet wash): negligible coordination
AD compound captured, Wash 1 ([4]; 1st pellet wash): 17 ± 1 µM
AD compound captured, Wash 2 ([4]; 2nd pellet wash, room temperature): 4 ± 2 µM
AD compound captured, Wash 3 ([4]; 3rd pellet wash, room temperature): 3 ± 2 µM
